For one molecule, binding results are on record in publication PMC7805345.

In test [1] the target is T1, M. smegmatis GlgE H349Y variant (M. smegmatis) (UniProt Q9RP48).
T1 sequence: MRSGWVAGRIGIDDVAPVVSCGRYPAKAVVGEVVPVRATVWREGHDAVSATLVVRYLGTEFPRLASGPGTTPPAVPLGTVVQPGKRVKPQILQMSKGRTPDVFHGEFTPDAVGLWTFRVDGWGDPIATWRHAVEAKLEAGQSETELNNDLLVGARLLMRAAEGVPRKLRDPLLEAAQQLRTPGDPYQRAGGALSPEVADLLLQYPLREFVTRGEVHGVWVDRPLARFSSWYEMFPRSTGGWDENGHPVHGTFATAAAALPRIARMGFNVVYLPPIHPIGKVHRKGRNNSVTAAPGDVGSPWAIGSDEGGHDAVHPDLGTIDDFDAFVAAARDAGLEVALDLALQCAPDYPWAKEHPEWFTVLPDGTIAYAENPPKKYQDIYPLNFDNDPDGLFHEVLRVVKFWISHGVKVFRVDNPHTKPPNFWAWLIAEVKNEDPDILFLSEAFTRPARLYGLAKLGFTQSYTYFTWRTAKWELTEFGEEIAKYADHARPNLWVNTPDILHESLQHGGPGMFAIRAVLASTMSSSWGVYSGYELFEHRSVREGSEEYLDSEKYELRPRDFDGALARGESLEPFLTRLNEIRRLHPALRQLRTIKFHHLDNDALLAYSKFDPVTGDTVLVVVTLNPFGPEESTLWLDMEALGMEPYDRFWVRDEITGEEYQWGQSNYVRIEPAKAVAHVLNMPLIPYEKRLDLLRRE
Nature of the test: other fluorescence titration; intrinsic tryptophan fluorescence of 1 uM GlgE (methods: H349Y) with GarA up to 100 uM; 100 mM Bis-Tris propane, pH 7.0, 50 mM NaCl; both purified.

Test [2] has as its target T2, M. smegmatis GlgE (wild-type) labelled with dansyl chloride (M. smegmatis) (UniProt Q9RP48).
T2 sequence (chain, dansyl groups (labelled with dansyl chloride; sites not stated)): T1 sequence with Y349H
Nature of the test: fluorescence polarisation; fluorescence anisotropy; GarA titrated into 1 uM dansyl-labelled GlgE up to 630 uM at 25 and 42 °C; 100 mM Bis-Tris propane, pH 7.0, 50 mM NaCl; excitation 335 nm, emission 515 nm; both purified.

Where a chain is given by its changes, count along the chain named. These are yes or no findings as the source states them, for the method shown. Sequences can lack the tags named with a protein.

B1: Mycobacterium smegmatis GarA (protein, UniProt A0QYG2 1-158)
chain: MTDKDSNLGADQSEDVTVETTSVFRADFLNELDAPAAAGTEGAVSGVEGLPSGSALLVVKRGPNAGSRFLLDQPTTSAGRHPDSDIFLDDVTVSRRHAEFRLEGGEFQVVDVGSLNGTYVNREPVDSAVLANGDEVQIGKFRLVFLTGPKSDDSGSNA
Take B1: the binding entry in test [1] is on record as “no binding (tested: 100 μM)”; in test [2] it was “no binding (tested: 630 μM)”.
